Literature values as cited in patent US4894376A, “Methods of treating diseases characterized by hyperexcitability of neurons” (Trustees of the University of Pennsylvania, priority 1988, dated 1990).
At least one compound was matched to its structure with a doubt left.

System: T type calcium channel
Settings: cited from earlier work

O=C1NC(=O)C(c2ccccc2)(c2ccccc2)N1 [diphenylhydantoin]
T type calcium channel suppression: suppressing the T type calcium channel
